Construct, isoform or probe ends are uncertain for at least one entry. Results from cells or extracts need not show a direct contact. For some assays here: Where a protein sequence is shown, tags need not be part of it.
Assays:
Test in all cases: EMSA supershift
[1] = target: C/EBPβ (endogenous) (mouse (MLE12 cells)) (UniProt P28033); conditions: with and without IL-1β; 25 µl with 6 µl nuclear extract in buffer C (420 mM NaCl, 20 mM HEPES pH 7.9, 25% glycerol), 5x binding buffer (20% Ficoll, 50 mM HEPES pH 7.9, 5 mM EDTA, 5 mM DTT); protein in an extract; label: 32P
[2] = tested on: C/EBPγ (endogenous) + C/EBPβ isoform LAP (endogenous); conditions: γ:LAP heterodimer, increased by IL-1β; 25 µl with 6 µl nuclear extract in buffer C (420 mM NaCl, 20 mM HEPES pH 7.9, 25% glycerol), 5x binding buffer (20% Ficoll, 50 mM HEPES pH 7.9, 5 mM EDTA, 5 mM DTT); protein in an extract; label: 32P
[3] = target: T1, C/EBPγ (endogenous) (mouse (MLE12 cells)) (UniProt P53568); conditions: γ:γ homodimer, with and without IL-1β, increased by IL-1β; 25 µl with 6 µl nuclear extract in buffer C (420 mM NaCl, 20 mM HEPES pH 7.9, 25% glycerol), 5x binding buffer (20% Ficoll, 50 mM HEPES pH 7.9, 5 mM EDTA, 5 mM DTT); protein in an extract; label: 32P
T1 sequence (looked up, limits assumed): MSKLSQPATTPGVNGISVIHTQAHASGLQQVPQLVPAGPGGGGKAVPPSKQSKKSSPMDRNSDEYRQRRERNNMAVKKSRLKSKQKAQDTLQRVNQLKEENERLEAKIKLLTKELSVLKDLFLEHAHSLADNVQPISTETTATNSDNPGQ

Amino acid sequences for entries named in this document (tags omitted). A change or cut given only in a name is not applied to a line headed by its entry.
UniProt P28033: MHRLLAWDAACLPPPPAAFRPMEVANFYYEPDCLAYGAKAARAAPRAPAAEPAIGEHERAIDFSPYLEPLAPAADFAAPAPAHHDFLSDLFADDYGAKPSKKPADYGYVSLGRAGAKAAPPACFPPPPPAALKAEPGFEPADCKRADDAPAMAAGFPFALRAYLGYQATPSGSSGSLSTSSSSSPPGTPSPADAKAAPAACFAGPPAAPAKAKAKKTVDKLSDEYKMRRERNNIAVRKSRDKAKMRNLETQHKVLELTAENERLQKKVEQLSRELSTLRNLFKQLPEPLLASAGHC

[4] = target: T2, C/EBPγ (adenovirally overexpressed) (mouse) (UniProt P53568); conditions: Adeno-C/EBPγ-infected MLE12 nuclear extract; 25 µl with 6 µl nuclear extract in buffer C (420 mM NaCl, 20 mM HEPES pH 7.9, 25% glycerol), 5x binding buffer (20% Ficoll, 50 mM HEPES pH 7.9, 5 mM EDTA, 5 mM DTT); protein in an extract; residues 1-150; label: 32P
T2 sequence (looked up): T1 sequence (looked up, limits assumed)

[5] = tested on: C/EBPγ (endogenous) + C/EBPβ isoform LIP (endogenous); conditions: γ:LIP heterodimer, increased by IL-1β; 25 µl with 6 µl nuclear extract in buffer C (420 mM NaCl, 20 mM HEPES pH 7.9, 25% glycerol), 5x binding buffer (20% Ficoll, 50 mM HEPES pH 7.9, 5 mM EDTA, 5 mM DTT); protein in an extract; label: 32P

Measured: binding result

CTAAACGACGTCACATTGTGCAATCTTAATAAGGTT / TGGAAACCTTATTAAGATTGCACAATGTGACGTCGT [murine IL-6 C/EBP site probe]
binds: all assays above

From paper PMC3338717
